According to patent US8377972B2, “Use of quaternary pyridinium compounds for vasoprotection and/or hepatoprotection” (Trigendo Sp. zo.o., priority 2007, dated 2013):
Some entries share one result that the patent states for a list of compounds.

Test system: platelet-rich thrombus
Assay: Thrombolytic response in vivo in rats with extracorporeal circulation (thrombus on collagen strip)
Design: species or system Wistar rats
Details: 30 mg/kg intravenous
Protocol: Thrombolytic activity was assayed by the method developed originally by Gryglewski et al., (Gryglewski R J, Korbut R, Ocetkiewicz A, Stachura J. In vivo method for quantitation for anti-platelet potency of drugs. Naunyn Schmiedebergs Arch Pharmacol 1978; 302:25-30; Gryglewski R J 1978, Gryglewski et al., 2001). The scheme of the method is shown on FIG. 1.
Wistar rats (body weight of 300-350 g) were anaesthetised (thiopental 95 mg/kg i.p) and heparinised (800 U/kg i.v.). Caniules were placed in arteries and connected from the left carotid artery vein with a pressure sensor and from the right carotid artery through heated (37° C.) line to peristaltic pomp. The blood from carotid artery was pumped to the extracorporeal circulation were it superfused (1.5 ml/min) a 3 cm collagen strip excised from Achilles tendon hung on a spring-balanced auxotonic lever of a Harvard 386 isotonic transducer and the weight of the collagen strip was continuously registered. After superfusion the blood was returned to the circulation of an animal. During superfusion a thrombus made of platelets aggregates stuck in the fibrin network (microscopically visualized by the Weigert method) was formed on the surface of the collagen strip. A pressure and the thrombus weight were continuously recorded. […]

NC(=O)c1cccnc1 [NA, nicotinamide]
duration of thrombolytic response: 15 to 20 min
